Assay results: PubChem BioAssay AID270 (DTP/NCI, 2004)
The list does not hold the whole screen: it is rich in T/C values a quarter to a half above the control, in often repeated tests (any T/C) and in doses without a T/C. Other doses and runs of a compound stand elsewhere. T/C is the treated group as % of the vehicle group. Schedule codes are those of the source, read here as Q, the interval in days (D) or hours (H), X, the number of doses. Some entries give survivors of the animals treated and no T/C: the source files T/C as zero there, which appears to mark a toxic dose or a test without result, not a measured value. Some survivor counts are full or nearly so, which does not show that the dose was tolerated: the source hardly ever lists a survival T/C far under the control, and the zero likely stands for such cases as well. Survivors were counted at the toxicity check, usually on the fifth day, unless a day is given; later deaths do not show. Where survival is the endpoint, the PubChem record calls one and a half times the control and up active, and a quarter to a half above the control has no call in these data; cut-offs in other NCI protocols can differ. Some T/C values carry the count of animals alive at the toxicity check (mostly the fifth day); where none is given, no animal had died by that day.

Test system: BDF1 mice, s.c. Lewis lung carcinoma, T/C %
Assay: NCI In Vivo Anticancer Drug Screen. Data for tumor model Lewis Lung Carcinoma (subcutaneous) in B6D2F1 (BDF1) mice
Method in brief: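 The value reflects a ratio in which the treated cohort's survival time or tumour size is compared against mice receiving only vehicle.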

[1] = T/C endpoint: median survival time, dose: 50.0 mg/kg/injection, schedule: Q01DX009 (ip), vehicle: Klucel (hydroxypropylcellulose) (HPC), higher T/C = longer survival

CCOP(=O)(CC(=O)NC(CC(=O)OC)C(=O)OC)OCC (stereo unspecified)
T/C (T/C endpoint: median survival time, dose: 400.0 mg/kg/injection, schedule: Q01DX004 (ip), vehicle: saline, higher T/C = longer survival): 135 % of control

CCC[CH2][Sn]([CH2]CCC)([CH2]CCC)[O]C(=O)CC[S][Sn]([CH2]CCC)([CH2]CCC)[CH2]CCC
survivor count (T/C endpoint: mean tumor weight, dose: 1.5 mg/kg/injection, schedule: Q01DX011 (ip), vehicle: saline, higher T/C = larger tumour): 0 of 7 | survivor count (T/C endpoint: mean tumor weight, dose: 6.0 mg/kg/injection, schedule: Q01DX011 (ip), vehicle: saline, higher T/C = larger tumour): 1 of 7

C[C@@H]1CCC[C@@H](NC(=O)N(CCCl)N=O)C1
T/C (T/C endpoint: median survival time, dose: 37.5 mg/kg/injection, schedule: Q01DX009 (ip), vehicle: Klucel (hydroxypropylcellulose) (HPC), higher T/C = longer survival): 148 % of control [9 of 10 alive]

CCCCCCCCCCCCCCCC(=O)OCC1OC(n2ccc(N)nc2=O)C(O)C1O (stereo unspecified)
T/C (T/C endpoint: median survival time, dose: 15.0 mg/kg/injection, schedule: Q01DX015 (ip), vehicle: saline with Tween-80, higher T/C = longer survival): 132 % of control | T/C (T/C endpoint: median survival time, dose: 20.0 mg/kg/injection, schedule: Q01DX015 (ip), vehicle: saline with Tween-80, higher T/C = longer survival): 139 % of control

CCOC(=O)c1c[nH]c2c(Cl)c(C)ccc2c1=O
T/C (T/C endpoint: mean tumor weight, dose: 233.0 mg/kg/injection, schedule: Q01DX011 (ip), vehicle: other, evaluated on day 12, higher T/C = larger tumour): 127 % of control

OC1c2cc(Cl)ccc2-c2c(Cl)cc(Cl)cc21 (stereo unspecified)
survivor count (T/C endpoint: mean tumor weight, dose: 250.0 mg/kg/injection, schedule: Q01DX011 (ip), vehicle: carboxymethylcellulose (CMC), higher T/C = larger tumour): 2 of 6

CO[C@H](C(=O)[C@@H](O)[C@@H](C)O)[C@@H]1Cc2cc3cc(OC4CC(OC5CC(O)C(O)C(C)O5)C(O)C(C)O4)c(C)c(O)c3c(O)c2C(=O)[C@H]1OC1CC(OC2CC(OC3CC(C)(O)C(O)C(C)O3)C(O)C(C)O2)C(O)C(C)O1 (stereo partly specified)
survivor count (T/C endpoint: median survival time, dose: 0.13 mg/kg/injection, schedule: Q01DX009 (ip), vehicle: saline, higher T/C = longer survival): 10 of 10 | survivor count (T/C endpoint: median survival time, dose: 0.5 mg/kg/injection, schedule: Q01DX009 (ip), vehicle: saline, higher T/C = longer survival): 10 of 10 | survivor count (T/C endpoint: median survival time, dose: 1.0 mg/kg/injection, schedule: Q01DX009 (ip), vehicle: saline, higher T/C = longer survival): 5 of 10 | survivor count (T/C endpoint: median survival time, dose: 2.0 mg/kg/injection, schedule: Q01DX009 (ip), vehicle: saline, higher T/C = longer survival): 0 of 10

CC(C)c1ccc(O)c(=O)cc1
survivor count (T/C endpoint: mean tumor weight, dose: 150.0 mg/kg/injection, schedule: Q01DX011 (ip), vehicle: carboxymethylcellulose (CMC), higher T/C = larger tumour): 3 of 6

O=C(O)C1CCCCN1 (stereo unspecified)
T/C (T/C endpoint: mean tumor weight, dose: 200.0 mg/kg/injection, schedule: Q01DX011 (ip), vehicle: other, evaluated on day 12, higher T/C = larger tumour): 129 % of control

S=P(NCCNP(=S)(N1CC1)N1CC1)(N1CC1)N1CC1
survivor count [1]: 10 of 10

COC(=O)[C@@H]1c2cc3c(c(O)c2[C@@H](OC2OC(C)C(OC)C(C)(OC)C2OC)C[C@]1(C)O)C(=O)c1c(O)cc2c(c1C3=O)O[C@H]1O[C@]2(C)[C@H](O)[C@@H](N(C)C)[C@@H]1O (stereo partly specified)
survivor count (T/C endpoint: mean tumor weight, dose: 1.5 mg/kg/injection, schedule: Q01DX008 (ip), vehicle: saline, higher T/C = larger tumour): 0 of 6 | survivor count (T/C endpoint: mean tumor weight, dose: 2.0 mg/kg/injection, schedule: Q01DX008 (ip), vehicle: saline, higher T/C = larger tumour): 0 of 6

O=NN(CCCl)C(=O)Nc1cccc(O)c1
T/C (T/C endpoint: median survival time, dose: 12.5 mg/kg/injection, schedule: Q01DX009 (ip), vehicle: Klucel (hydroxypropylcellulose) (HPC), higher T/C = longer survival): 130 % of control | T/C [1]: 125 % of control [9 of 10 alive] | survivor count (T/C endpoint: median survival time, dose: 100.0 mg/kg/injection, schedule: Q01DX009 (ip), vehicle: Klucel (hydroxypropylcellulose) (HPC), higher T/C = longer survival): 7 of 10

O=C(O)Cc1ccc(C2CCCCC2)cc1
survivor count (T/C endpoint: mean tumor weight, dose: 500.0 mg/kg/injection, schedule: Q01DX011 (ip), vehicle: carboxymethylcellulose (CMC), higher T/C = larger tumour): 2 of 6

C[C@]12CC[C@H]3[C@@H](CC[C@]4(O)C[C@@H](O)CC[C@]34C=O)[C@@]1(O)CC[C@@H]2C1=CC(=O)OC1
T/C (T/C endpoint: median survival time, dose: 6.25 mg/kg/injection, schedule: Q01DX009 (ip), vehicle: Klucel (hydroxypropylcellulose) (HPC), higher T/C = longer survival): 126 % of control

C1CCNC1
survivor count (T/C endpoint: mean tumor weight, dose: 100.0 mg/kg/injection, schedule: Q01DX011 (ip), vehicle: saline, higher T/C = larger tumour): 0 of 6

CCOC(C)C(/C=N/NC(N)=S)=NNC(N)=S (stereo unspecified)
survivor count (T/C endpoint: mean tumor weight, dose: 240.0 mg/kg/injection, schedule: Q01DX011 (ip), vehicle: saline, higher T/C = larger tumour): 0 of 6

CC(=O)NNC(=O)c1ccccn1
survivor count [1]: 10 of 10 | survivor count (T/C endpoint: median survival time, dose: 400.0 mg/kg/injection, schedule: Q01DX009 (ip), vehicle: Klucel (hydroxypropylcellulose) (HPC), higher T/C = longer survival): 0 of 10

O=c1cc(-c2ccc(O)cc2)oc2c(O)c(O)c(O)c(O)c12
survivor count (T/C endpoint: mean tumor weight, dose: 400.0 mg/kg/injection, schedule: Q01DX011 (ip), vehicle: saline, higher T/C = larger tumour): 0 of 6

O=NN(CCCl)C(=O)N[C@H]1CCC[C@@H](C(=O)O)C1
survivor count (T/C endpoint: median survival time, dose: 21.0 mg/kg/injection, schedule: Q01DX001 (ip), vehicle: Klucel (hydroxypropylcellulose) (HPC), higher T/C = longer survival): 10 of 10 on day 11 | survivor count (T/C endpoint: median survival time, dose: 48.0 mg/kg/injection, schedule: Q01DX001 (ip), vehicle: Klucel (hydroxypropylcellulose) (HPC), higher T/C = longer survival): 10 of 10 on day 11 | survivor count (T/C endpoint: median survival time, dose: 72.0 mg/kg/injection, schedule: Q01DX001 (ip), vehicle: Klucel (hydroxypropylcellulose) (HPC), higher T/C = longer survival): 10 of 10 on day 11

COc1c(Cl)cc2c(c1OC)N(C)C1N3C(=O)C4(C)SSC3(C(=O)N4C)C(O)C21O (stereo unspecified)
survivor count (T/C endpoint: median survival time, dose: 1.0 mg/kg/injection, schedule: Q01DX009 (ip), vehicle: Klucel (hydroxypropylcellulose) (HPC), higher T/C = longer survival): 8 of 10
